Results from paper PMC12048626.
Where two headings read alike, the source gives them in different places. These are yes or no findings as the source states them, for the method shown. Binding seen in cells or lysates may run through a third protein. Some entries that bind do so weakly or less than the wild type. For part of these data: Tags and fused reporters may be left off the sequences shown. Values belong to the molecule of their own block, whether it stands above or below them.

Amino acid sequences for entries named in this document (tags omitted). A change or cut given only in a name is not applied to a line headed by its entry. Residues count along the entry.
UniProt Q9HCE7: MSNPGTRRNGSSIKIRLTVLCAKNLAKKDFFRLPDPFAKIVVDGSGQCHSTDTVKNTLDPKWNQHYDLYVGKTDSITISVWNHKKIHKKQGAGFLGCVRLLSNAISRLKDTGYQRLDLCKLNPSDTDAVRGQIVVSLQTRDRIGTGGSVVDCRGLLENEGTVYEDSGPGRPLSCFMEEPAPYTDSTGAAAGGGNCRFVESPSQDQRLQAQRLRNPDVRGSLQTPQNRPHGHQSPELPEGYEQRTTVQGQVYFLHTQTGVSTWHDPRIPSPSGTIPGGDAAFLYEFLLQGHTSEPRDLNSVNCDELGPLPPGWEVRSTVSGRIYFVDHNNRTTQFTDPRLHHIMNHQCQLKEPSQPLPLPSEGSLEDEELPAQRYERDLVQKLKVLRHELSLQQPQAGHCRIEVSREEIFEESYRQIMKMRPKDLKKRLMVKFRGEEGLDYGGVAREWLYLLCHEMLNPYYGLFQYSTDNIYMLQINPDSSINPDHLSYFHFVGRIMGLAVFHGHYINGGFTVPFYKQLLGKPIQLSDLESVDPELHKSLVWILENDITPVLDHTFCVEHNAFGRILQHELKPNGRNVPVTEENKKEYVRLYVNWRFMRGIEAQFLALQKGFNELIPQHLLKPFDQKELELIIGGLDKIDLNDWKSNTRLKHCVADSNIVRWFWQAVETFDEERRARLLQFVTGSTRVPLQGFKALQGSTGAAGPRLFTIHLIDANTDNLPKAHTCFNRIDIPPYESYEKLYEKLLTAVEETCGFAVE
UniProt Q96J02: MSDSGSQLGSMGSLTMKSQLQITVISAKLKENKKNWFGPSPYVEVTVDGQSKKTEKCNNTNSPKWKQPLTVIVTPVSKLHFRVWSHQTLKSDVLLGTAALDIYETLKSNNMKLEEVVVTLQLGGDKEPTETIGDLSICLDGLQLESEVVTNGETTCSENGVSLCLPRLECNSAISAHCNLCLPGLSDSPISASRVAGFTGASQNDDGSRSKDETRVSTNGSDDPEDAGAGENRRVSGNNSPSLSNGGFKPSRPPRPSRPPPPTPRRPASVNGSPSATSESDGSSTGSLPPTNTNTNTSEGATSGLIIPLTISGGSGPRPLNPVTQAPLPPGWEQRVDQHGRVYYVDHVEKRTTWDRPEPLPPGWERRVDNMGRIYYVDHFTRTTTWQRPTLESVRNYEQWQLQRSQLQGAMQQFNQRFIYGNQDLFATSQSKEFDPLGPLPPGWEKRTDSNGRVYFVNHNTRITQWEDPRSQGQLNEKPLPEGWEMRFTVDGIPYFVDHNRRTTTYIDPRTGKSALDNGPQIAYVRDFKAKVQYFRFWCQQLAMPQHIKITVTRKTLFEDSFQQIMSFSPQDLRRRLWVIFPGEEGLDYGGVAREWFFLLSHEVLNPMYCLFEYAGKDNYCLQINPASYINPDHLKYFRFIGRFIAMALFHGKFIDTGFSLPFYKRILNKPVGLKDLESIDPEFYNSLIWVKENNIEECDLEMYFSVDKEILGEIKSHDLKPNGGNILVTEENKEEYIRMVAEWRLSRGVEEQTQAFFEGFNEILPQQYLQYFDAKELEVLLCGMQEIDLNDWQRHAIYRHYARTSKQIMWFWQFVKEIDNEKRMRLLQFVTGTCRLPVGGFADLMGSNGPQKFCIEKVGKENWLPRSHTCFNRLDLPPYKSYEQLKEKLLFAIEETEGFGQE
UniProt Q76N89: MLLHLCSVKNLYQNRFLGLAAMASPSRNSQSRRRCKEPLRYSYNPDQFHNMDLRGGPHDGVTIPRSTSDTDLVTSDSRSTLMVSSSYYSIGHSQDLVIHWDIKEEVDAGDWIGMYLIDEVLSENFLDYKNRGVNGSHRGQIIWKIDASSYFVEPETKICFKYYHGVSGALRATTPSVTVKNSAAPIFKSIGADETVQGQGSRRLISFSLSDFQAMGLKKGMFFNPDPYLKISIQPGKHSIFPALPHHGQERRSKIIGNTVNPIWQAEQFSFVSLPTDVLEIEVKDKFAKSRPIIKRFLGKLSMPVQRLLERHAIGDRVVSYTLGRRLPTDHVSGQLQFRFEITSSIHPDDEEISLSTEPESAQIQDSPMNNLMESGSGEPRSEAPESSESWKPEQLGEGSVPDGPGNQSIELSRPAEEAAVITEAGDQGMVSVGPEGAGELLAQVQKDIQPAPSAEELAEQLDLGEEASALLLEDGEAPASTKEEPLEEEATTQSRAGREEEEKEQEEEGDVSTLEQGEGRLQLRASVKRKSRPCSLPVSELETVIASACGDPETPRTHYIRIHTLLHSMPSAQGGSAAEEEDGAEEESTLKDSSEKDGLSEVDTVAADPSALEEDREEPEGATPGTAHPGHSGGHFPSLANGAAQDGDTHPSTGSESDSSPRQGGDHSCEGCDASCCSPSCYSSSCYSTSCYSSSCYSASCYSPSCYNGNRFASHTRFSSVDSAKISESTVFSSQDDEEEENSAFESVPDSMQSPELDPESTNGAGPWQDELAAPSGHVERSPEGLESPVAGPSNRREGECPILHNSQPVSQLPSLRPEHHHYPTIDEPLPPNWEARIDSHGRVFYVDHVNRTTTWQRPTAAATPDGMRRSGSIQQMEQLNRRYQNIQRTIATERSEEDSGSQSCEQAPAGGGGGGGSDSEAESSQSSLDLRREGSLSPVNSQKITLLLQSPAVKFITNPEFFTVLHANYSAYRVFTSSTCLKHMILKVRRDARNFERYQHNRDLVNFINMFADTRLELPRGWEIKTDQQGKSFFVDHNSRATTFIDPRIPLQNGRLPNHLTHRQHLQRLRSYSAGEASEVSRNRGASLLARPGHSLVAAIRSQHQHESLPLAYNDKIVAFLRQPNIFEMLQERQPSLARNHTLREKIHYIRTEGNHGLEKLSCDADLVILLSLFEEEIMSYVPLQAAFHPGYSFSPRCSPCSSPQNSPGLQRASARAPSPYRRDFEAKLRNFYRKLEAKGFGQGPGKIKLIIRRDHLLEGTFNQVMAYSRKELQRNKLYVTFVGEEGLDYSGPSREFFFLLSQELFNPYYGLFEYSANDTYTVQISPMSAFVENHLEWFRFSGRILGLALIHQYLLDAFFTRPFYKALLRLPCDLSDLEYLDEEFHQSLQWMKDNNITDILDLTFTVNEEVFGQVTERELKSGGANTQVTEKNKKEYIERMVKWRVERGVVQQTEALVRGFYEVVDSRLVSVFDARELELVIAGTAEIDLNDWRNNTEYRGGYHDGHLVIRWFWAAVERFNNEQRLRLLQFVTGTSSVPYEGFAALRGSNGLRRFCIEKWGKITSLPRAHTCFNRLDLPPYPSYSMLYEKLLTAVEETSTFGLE
UniProt O00308: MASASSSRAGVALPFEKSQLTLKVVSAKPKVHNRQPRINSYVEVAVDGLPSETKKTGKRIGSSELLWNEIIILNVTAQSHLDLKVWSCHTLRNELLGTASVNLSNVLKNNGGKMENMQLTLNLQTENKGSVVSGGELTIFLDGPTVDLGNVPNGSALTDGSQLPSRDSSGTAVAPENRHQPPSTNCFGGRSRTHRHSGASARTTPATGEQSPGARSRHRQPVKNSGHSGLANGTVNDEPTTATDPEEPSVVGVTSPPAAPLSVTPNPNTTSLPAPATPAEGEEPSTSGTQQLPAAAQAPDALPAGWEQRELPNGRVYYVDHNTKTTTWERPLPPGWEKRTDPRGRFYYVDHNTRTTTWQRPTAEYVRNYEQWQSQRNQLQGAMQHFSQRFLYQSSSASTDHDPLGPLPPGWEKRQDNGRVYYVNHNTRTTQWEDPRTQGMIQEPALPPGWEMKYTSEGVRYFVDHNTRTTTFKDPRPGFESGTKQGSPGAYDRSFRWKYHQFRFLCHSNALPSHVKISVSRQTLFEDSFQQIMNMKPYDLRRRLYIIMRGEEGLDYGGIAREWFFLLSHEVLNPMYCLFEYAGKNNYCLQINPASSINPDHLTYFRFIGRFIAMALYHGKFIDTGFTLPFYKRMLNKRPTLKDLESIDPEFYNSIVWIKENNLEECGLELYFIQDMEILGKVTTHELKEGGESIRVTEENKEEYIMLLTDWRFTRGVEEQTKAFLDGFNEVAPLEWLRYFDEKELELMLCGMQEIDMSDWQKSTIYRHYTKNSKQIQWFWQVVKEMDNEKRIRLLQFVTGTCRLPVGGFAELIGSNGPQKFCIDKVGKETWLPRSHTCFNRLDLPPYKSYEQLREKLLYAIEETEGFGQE
UniProt P46934: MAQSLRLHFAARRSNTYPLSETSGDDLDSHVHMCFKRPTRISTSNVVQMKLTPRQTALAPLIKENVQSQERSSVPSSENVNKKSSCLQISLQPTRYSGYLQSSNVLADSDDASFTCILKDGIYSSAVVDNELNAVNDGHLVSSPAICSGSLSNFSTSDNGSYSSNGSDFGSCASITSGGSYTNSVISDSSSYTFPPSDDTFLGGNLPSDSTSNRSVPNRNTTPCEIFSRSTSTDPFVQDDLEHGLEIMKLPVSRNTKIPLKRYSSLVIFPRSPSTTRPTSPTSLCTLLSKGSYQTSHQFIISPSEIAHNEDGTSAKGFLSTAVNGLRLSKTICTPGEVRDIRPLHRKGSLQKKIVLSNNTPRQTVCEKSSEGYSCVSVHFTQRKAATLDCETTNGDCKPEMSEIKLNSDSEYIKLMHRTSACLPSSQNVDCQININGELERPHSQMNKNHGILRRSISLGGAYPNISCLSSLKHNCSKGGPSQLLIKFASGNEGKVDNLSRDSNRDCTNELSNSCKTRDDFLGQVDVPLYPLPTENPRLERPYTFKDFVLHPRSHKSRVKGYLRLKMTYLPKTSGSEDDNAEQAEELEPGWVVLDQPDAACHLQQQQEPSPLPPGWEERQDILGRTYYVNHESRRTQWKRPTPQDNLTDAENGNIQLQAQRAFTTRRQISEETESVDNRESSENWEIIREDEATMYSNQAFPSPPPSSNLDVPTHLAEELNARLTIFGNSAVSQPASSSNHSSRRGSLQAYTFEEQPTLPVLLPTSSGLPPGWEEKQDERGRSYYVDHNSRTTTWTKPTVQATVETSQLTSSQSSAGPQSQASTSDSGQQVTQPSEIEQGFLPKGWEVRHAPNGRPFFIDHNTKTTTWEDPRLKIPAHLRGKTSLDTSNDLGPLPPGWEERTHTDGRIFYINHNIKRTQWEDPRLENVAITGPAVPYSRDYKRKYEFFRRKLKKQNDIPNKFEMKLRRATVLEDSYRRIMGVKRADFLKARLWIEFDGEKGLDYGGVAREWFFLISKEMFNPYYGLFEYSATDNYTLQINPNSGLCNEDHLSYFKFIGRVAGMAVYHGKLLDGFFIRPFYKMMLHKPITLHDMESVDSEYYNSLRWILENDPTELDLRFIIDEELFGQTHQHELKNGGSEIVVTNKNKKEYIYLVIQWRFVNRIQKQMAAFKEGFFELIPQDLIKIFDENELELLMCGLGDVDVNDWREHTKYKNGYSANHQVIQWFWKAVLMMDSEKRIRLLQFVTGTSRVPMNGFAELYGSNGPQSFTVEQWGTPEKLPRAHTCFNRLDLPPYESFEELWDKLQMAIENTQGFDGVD
Flag-NEDD4-1 (AAs: 1-930): residues 1-930 of P46934
UniProt Q16665: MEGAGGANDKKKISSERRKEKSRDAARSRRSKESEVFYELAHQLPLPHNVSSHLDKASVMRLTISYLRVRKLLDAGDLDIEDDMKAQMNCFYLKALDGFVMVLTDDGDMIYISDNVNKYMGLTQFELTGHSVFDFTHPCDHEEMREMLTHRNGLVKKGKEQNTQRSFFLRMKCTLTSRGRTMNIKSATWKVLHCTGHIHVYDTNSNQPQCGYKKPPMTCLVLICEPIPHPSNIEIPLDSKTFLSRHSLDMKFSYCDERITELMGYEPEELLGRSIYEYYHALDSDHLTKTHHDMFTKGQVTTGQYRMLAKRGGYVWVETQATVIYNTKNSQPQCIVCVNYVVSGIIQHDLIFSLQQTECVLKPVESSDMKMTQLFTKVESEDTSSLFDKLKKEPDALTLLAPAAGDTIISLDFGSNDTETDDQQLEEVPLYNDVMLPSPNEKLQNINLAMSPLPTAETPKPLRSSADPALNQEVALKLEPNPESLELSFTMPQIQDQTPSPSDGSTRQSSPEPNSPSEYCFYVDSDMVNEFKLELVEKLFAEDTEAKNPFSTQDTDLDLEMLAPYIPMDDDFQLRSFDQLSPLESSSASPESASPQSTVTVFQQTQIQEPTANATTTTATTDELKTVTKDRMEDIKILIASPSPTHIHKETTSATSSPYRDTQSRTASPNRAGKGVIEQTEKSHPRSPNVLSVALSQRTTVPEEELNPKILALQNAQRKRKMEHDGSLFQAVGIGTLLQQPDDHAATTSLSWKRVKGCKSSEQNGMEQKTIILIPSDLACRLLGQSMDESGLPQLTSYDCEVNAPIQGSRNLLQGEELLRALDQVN

Assays:
[1] = biological target: Flag-Smurf1 (human) (UniProt Q9HCE7); test: co-IP; exogenous co-IP: tagged proteins co-transfected in DLD1 cells, lysed 24 h later in Pierce IP lysis buffer, anti-FLAG M2 Affinity Gel or antibody plus protein A/G beads, 4 °C overnight; MG132 (5 μM, 6 h) as indicated; normoxia or hypoxia (1% O2, last 2 h or indicated time); some panels in shNEDD4, shPPA2 or shSIRT5 cells
[2] = biological target: Flag-ITCH (human) (UniProt Q96J02); test: as above
[3] = biological target: Flag-HECW2 (human) (UniProt Q9P2P5); test: as above
[4] = biological target: T1, Flag-PPA2 WT (inorganic pyrophosphatase 2) (human) (UniProt Q9H2U2); test: as above
T1 sequence: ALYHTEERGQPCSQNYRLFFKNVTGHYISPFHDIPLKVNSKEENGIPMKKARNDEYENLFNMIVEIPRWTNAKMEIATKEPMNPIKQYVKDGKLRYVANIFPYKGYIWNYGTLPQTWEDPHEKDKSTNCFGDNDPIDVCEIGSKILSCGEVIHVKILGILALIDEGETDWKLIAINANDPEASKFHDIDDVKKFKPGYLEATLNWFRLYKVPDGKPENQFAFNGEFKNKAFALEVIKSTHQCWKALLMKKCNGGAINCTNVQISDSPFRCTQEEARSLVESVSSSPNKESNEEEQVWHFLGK

[5] = biological target: Flag-HECW1 (human) (UniProt Q76N89); test: as above
[6] = biological target: Flag-WWP2 (human) (UniProt O00308); test: as above
[7] = biological target: Flag-NEDD4L (human) (UniProt Q96PU5); test: as above
[8] = biological target: Flag-WWP1 (human) (UniProt Q9H0M0); test: as above
[9] = biological target: Flag-NEDD4 T758A (human) (UniProt P46934); test: as above
[10] = biological target: Flag-NEDD4-FL (full length) (human) (UniProt P46934); test: as above
[11] = biological target: Flag-HIF-1α (hypoxia-inducible factor 1 alpha) (human) (UniProt Q16665); test: as above
[12] = biological target: T2, PPA2, endogenous (human (endogenous in DLD1)) (UniProt Q9H2U2); test: co-IP; endogenous co-IP: untransfected DLD1 cells under normoxia or hypoxia, lysate with antibody plus protein A/G beads, 4 °C overnight
T2 sequence: T1 sequence

[13] = biological target: HA-HIF-1α (hypoxia-inducible factor 1 alpha) (human) (UniProt Q16665); test: co-IP; exogenous co-IP: tagged proteins co-transfected in DLD1 cells, lysed 24 h later in Pierce IP lysis buffer, anti-FLAG M2 Affinity Gel or antibody plus protein A/G beads, 4 °C overnight; MG132 (5 μM, 6 h) as indicated; normoxia or hypoxia (1% O2, last 2 h or indicated time); some panels in shNEDD4, shPPA2 or shSIRT5 cells
[14] = biological target: Flag-NEDD4-1 (AAs: 1-930) (human) (UniProt P46934); test: as above
[15] = biological target: Flag-HIF-1α (hypoxia-inducible factor 1 alpha) (human) (UniProt Q16665); test: as above; remark: listed apart in the source
[16] = biological target: HA-NEDD4 (human) (UniProt P46934); test: as above
[17] = biological target: Flag-NEDD4-FL (full length) (human) (UniProt P46934); test: as above; remark: listed apart in the source

binding [1]: no binding | binding [2]: no binding | binding [3]: no binding | binding [4]: binds | binding [5]: no binding | binding [6]: binds | binding [7]: binds | binding [8]: no binding | binding [9]: binds | binding [10]: binds
Molecule: HA-HIF-1α (hypoxia-inducible factor 1 alpha) (from UniProt Q16665 1-826)

binding [12]: binds
Molecule: NEDD4, endogenous (from UniProt P46934 1-1319) (enzyme)

The next lines start with the molecule.

Molecule: HA-NEDD4 (from UniProt P46934 1-1319) (enzyme)
binding [4]: binds | binding [11]: binds

B1: Myc-PPA2 (inorganic pyrophosphatase 2) (enzyme, UniProt Q9H2U2 33-334)
chain: T1 sequence
binding [13]: binds | binding [14]: binds | binding [15]: binds | binding [16]: binds | binding [17]: binds
